Test results reported in US20150368608A1, “METHOD FOR THE THREE-DIMENSIONAL CO-CULTURE OF PODOCYTES AND ENDOTHELIAL CELLS AND RELATIVE IN VITRO CO-CULTURE SYSTEM” (FONDAZIONE IRCCS CA' GRANDA-OSPEDALE MAGGIORE POLICLINICO, priority 2009, published 2015).
At least one structure is not confirmed: it was looked up by name or label, or the drawing left a doubt.

Tested on: conditional immortalized podocyte mouse line
Experiment: expression of synaptopodin in the conditional immortalized mouse podocyte line during maturation (FIG. 10)
Type: cell-based
Conditions: cells differentiated under non-permissive conditions in the presence of retinoic acid vs. without

Structure (SMILES): CC1=C(/C=C/C(C)=C/C=C/C(C)=C/C(=O)O)C(C)(C)CCC1 [retinoic acid]
- expression of synaptopodin (marker of mature podocytes), cell differentiation: the marker is more fully expressed
